We go through 1 substance from PMC7989033.

By UniProt entry, the sequences of proteins in these tests, tags left out.
UniProt P08670: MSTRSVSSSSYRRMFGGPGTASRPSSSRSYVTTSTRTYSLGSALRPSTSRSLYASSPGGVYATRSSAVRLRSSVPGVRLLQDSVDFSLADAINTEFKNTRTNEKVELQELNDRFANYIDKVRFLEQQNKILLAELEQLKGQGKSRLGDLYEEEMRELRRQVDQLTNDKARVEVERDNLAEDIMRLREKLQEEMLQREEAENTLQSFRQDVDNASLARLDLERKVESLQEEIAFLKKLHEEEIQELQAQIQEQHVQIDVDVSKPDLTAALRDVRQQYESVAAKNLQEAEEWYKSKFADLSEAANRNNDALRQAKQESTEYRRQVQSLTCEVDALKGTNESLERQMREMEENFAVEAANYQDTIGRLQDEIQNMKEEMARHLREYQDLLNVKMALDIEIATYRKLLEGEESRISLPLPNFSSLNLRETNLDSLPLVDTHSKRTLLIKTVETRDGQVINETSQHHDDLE

These are yes or no findings as the source states them, for the method shown. Binding seen in cells or lysates may run through a third protein. Some results given as binding are weak or reduced against the parent protein; the word gives no strength.

The target of this assay is T1, CKLF like MARVEL transmembrane domain containing 6 (UniProt Q9NX76).
T1 sequence: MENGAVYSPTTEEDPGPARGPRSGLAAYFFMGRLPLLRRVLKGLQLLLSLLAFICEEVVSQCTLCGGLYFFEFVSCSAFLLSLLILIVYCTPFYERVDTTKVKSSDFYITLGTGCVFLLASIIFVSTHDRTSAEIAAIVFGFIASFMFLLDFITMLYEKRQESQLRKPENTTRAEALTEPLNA
The assay can be described thus: co-IP; reciprocal co-IP from lysates of Bel-7402 and MHCC-97H cells; 5 µg primary antibody (anti-CMTM6 or anti-vimentin), protein agarose beads, 4 °C for 2 h; western blotting of input and precipitates. (Immunoblotting shows a protein as a band on a membrane.)

As to vimentin (from UniProt P08670 1-466), the binding result is reported as “binds”.
